Data as given in PubChem BioAssay AID652243 (Drosophila RNAi Screening Center, 2013)
Test: 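Knock-downs that decrease or increase androgen receptor reporter signal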 (primary screen). Cell system: Drosophila S2R+ cells. Reagents: long dsRNA against Drosophila genes. Duration: 72 h (48 h, then 24 h hormone). Conditions: synthetic androgen R1881 at 10 nM for 24 h. Read-out: 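Per-well raw luminescence of the androgen-driven firefly reporter and of the Renilla control, two replicates each, without normalisation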. Direction: firefly reporter light: higher = more light from androgen-responsive reporter; Renilla control light: higher = more constitutive control signal (cell number, transfection). Rule for the call: 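Across duplicate plates, a knock-down whose log firefly/Renilla ratio shifted a set fold down or up from the GFP/LacZ control mean was a hit; the downward cut appears as both 1.5 and 3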. Calls: active = hit: reporter lowered or raised; inactive = no hit.
The deposit covers about 24,000 reagents; below is an unselected part of those with a known target gene and a result. Over the whole deposit, 246 (1%) are marked active. 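Plates not normalised; calls are printed but the firefly/Renilla ratio behind them is not deposited; fold cut for lowering reported inconsistently.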 The raw values are shown without normalisation. Reagent sequences are not shown. The record does not give: the amount of reagent.

With knock-down of Lgr4 (Leucine-rich repeat-containing G protein-coupled receptor 4) [DRSC18970], the screen gave firefly reporter light, replicate 1 = 9.70e5; firefly reporter light, replicate 2 = 6.84e5; Renilla control light, replicate 1 = 2.28e6; Renilla control light, replicate 2 = 1.08e6; inactive. Silencing of Lgr4 (Leucine-rich repeat-containing G protein-coupled receptor 4) [DRSC19884] came out at: firefly reporter light, replicate 1 = 6.06e5; firefly reporter light, replicate 2 = 5.54e5; Renilla control light, replicate 1 = 4.05e6; Renilla control light, replicate 2 = 4.26e6; inactive. With knock-down of Lgr4 (Leucine-rich repeat-containing G protein-coupled receptor 4) [DRSC24434], the screen gave firefly reporter light, replicate 1 = 8.21e5; firefly reporter light, replicate 2 = 8.60e5; Renilla control light, replicate 1 = 1.35e6; Renilla control light, replicate 2 = 1.29e6; inactive. For CG32022 [DRSC09678], the values are firefly reporter light, replicate 1 = 1.97e5; firefly reporter light, replicate 2 = 1.22e5; Renilla control light, replicate 1 = 2.02e6; Renilla control light, replicate 2 = 1.31e6; inactive. With knock-down of RpL11 (Ribosomal protein L11) [DRSC07537], the screen gave firefly reporter light, replicate 1 = 4.26e5; firefly reporter light, replicate 2 = 3.43e5; Renilla control light, replicate 1 = 5.48e5; Renilla control light, replicate 2 = 5.49e5; inactive. Knock-down of RpL11 (Ribosomal protein L11) [DRSC26217] came out at: firefly reporter light, replicate 1 = 2.09e5; firefly reporter light, replicate 2 = 2.08e5; Renilla control light, replicate 1 = 4.21e5; Renilla control light, replicate 2 = 3.08e5; inactive.

Depletion of Adar (Adenosine deaminase acting on RNA) [DRSC17725] came out at: firefly reporter light, replicate 1 = 4.51e5; firefly reporter light, replicate 2 = 6.41e5; Renilla control light, replicate 1 = 4.53e6; Renilla control light, replicate 2 = 3.82e6; inactive. Silencing of Tmem18 (Transmembrane protein 18) [DRSC27312] gave: firefly reporter light, replicate 1 = 2.52e5; firefly reporter light, replicate 2 = 2.50e5; Renilla control light, replicate 1 = 9.04e5; Renilla control light, replicate 2 = 8.43e5; inactive. With knock-down of SerRS-m (Seryl-tRNA synthetase, mitochondrial) [DRSC14096], the screen gave firefly reporter light, replicate 1 = 1.22e5; firefly reporter light, replicate 2 = 1.11e5; Renilla control light, replicate 1 = 1.77e6; Renilla control light, replicate 2 = 2.20e6; inactive. With knock-down of FASN1 (Fatty acid synthase 1) [DRSC00268] the results were firefly reporter light, replicate 1 = 8.48e5; firefly reporter light, replicate 2 = 8.47e5; Renilla control light, replicate 1 = 1.94e6; Renilla control light, replicate 2 = 1.49e6; inactive. FASN1 (Fatty acid synthase 1) [DRSC26498] showed firefly reporter light, replicate 1 = 85435; firefly reporter light, replicate 2 = 96593; Renilla control light, replicate 1 = 1.37e5; Renilla control light, replicate 2 = 1.48e5; inactive. BckdhA (Branched chain keto acid dehydrogenase E1 subunit alpha) [DRSC16395] showed firefly reporter light, replicate 1 = 1.16e5; firefly reporter light, replicate 2 = 1.50e5; Renilla control light, replicate 1 = 2.07e6; Renilla control light, replicate 2 = 2.65e6; inactive.

For nompB (no mechanoreceptor potential B) [DRSC03701], the values are firefly reporter light, replicate 1 = 1.96e5; firefly reporter light, replicate 2 = 1.94e5; Renilla control light, replicate 1 = 1.72e6; Renilla control light, replicate 2 = 1.57e6; inactive. Silencing of nompB (no mechanoreceptor potential B) [DRSC03731] resulted in: firefly reporter light, replicate 1 = 3.59e5; firefly reporter light, replicate 2 = 6.31e5; Renilla control light, replicate 1 = 1.14e6; Renilla control light, replicate 2 = 1.69e6; inactive. With knock-down of Ppm1 [DRSC08260], the record shows firefly reporter light, replicate 1 = 61006; firefly reporter light, replicate 2 = 56091; Renilla control light, replicate 1 = 9.88e5; Renilla control light, replicate 2 = 9.52e5; inactive. After knock-down of Ppm1 [DRSC27792], the screen gave firefly reporter light, replicate 1 = 2.28e5; firefly reporter light, replicate 2 = 1.79e5; Renilla control light, replicate 1 = 4.86e5; Renilla control light, replicate 2 = 7.09e5; inactive. Silencing of CG13674 [DRSC10033] resulted in: firefly reporter light, replicate 1 = 3.47e5; firefly reporter light, replicate 2 = 2.74e5; Renilla control light, replicate 1 = 3.80e6; Renilla control light, replicate 2 = 2.30e6; inactive. Silencing of CG13674 [DRSC27828] resulted in: firefly reporter light, replicate 1 = 2.09e5; firefly reporter light, replicate 2 = 2.42e5; Renilla control light, replicate 1 = 5.21e5; Renilla control light, replicate 2 = 7.06e5; inactive.

After knock-down of CG13192 [DRSC06317], the record shows firefly reporter light, replicate 1 = 1.74e5; firefly reporter light, replicate 2 = 1.25e5; Renilla control light, replicate 1 = 1.18e6; Renilla control light, replicate 2 = 1.14e6; inactive. CG32281 [DRSC08236] showed firefly reporter light, replicate 1 = 9.44e5; firefly reporter light, replicate 2 = 8.70e5; Renilla control light, replicate 1 = 1.65e6; Renilla control light, replicate 2 = 1.75e6; inactive. Against Phf7 (PHD finger protein 7) [DRSC23523], the values are firefly reporter light, replicate 1 = 7.02e5; firefly reporter light, replicate 2 = 7.82e5; Renilla control light, replicate 1 = 1.00e6; Renilla control light, replicate 2 = 1.00e6; inactive. Depletion of AstA-R2 (Allatostatin A receptor 2) [DRSC14171] resulted in: firefly reporter light, replicate 1 = 1.48e5; firefly reporter light, replicate 2 = 1.81e5; Renilla control light, replicate 1 = 2.37e6; Renilla control light, replicate 2 = 3.05e6; inactive. After knock-down of AstA-R2 (Allatostatin A receptor 2) [DRSC24820], the record shows firefly reporter light, replicate 1 = 6.21e5; firefly reporter light, replicate 2 = 7.29e5; Renilla control light, replicate 1 = 1.03e6; Renilla control light, replicate 2 = 8.10e5; inactive. With knock-down of CG3081 [DRSC18571], the screen gave firefly reporter light, replicate 1 = 1.03e5; firefly reporter light, replicate 2 = 1.52e5; Renilla control light, replicate 1 = 1.97e6; Renilla control light, replicate 2 = 2.49e6; inactive.

Depletion of CG7191 [DRSC03022] gave: firefly reporter light, replicate 1 = 2.63e5; firefly reporter light, replicate 2 = 2.30e5; Renilla control light, replicate 1 = 2.15e6; Renilla control light, replicate 2 = 1.83e6; inactive. Knock-down of CG7191 [DRSC26094] came out at: firefly reporter light, replicate 1 = 3.63e5; firefly reporter light, replicate 2 = 4.32e5; Renilla control light, replicate 1 = 4.73e5; Renilla control light, replicate 2 = 6.71e5; inactive. CG10257 [DRSC05985] showed firefly reporter light, replicate 1 = 1.39e5; firefly reporter light, replicate 2 = 1.11e5; Renilla control light, replicate 1 = 1.65e6; Renilla control light, replicate 2 = 1.65e6; inactive.

Not a retest: an excerpt of the list.
Ppm1 [DRSC08260]: firefly reporter light, replicate 1 = 61006; firefly reporter light, replicate 2 = 56091; Renilla control light, replicate 1 = 9.88e5; Renilla control light, replicate 2 = 9.52e5; Call = inactive
Ppm1 [DRSC27792]: firefly reporter light, replicate 1 = 2.28e5; firefly reporter light, replicate 2 = 1.79e5; Renilla control light, replicate 1 = 4.86e5; Renilla control light, replicate 2 = 7.09e5; Call = inactive
